Article PMC5996148
Where “and” joins values, the source holds several entries; their conditions need not be identical. Equal entries are not always repeated. The list shows a part of the results. For some of these results: Construct or isoform of the protein are uncertain.

The chains behind the UniProt entries cited, without tags or fusion partners. Where a name states a change or a piece, a line headed by the entry shows the natural chain unless it says otherwise.
UniProt Q15691: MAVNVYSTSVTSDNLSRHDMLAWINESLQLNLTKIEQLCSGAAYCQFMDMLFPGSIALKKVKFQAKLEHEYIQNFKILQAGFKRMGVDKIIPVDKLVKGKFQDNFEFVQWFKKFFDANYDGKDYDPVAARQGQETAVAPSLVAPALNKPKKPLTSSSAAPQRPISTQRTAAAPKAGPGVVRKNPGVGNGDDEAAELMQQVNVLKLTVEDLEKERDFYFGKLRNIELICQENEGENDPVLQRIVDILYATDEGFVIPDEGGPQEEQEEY

Columns and labels:
Experiment in all cases: protein microarray (ProtoArray v5.0), streptavidin-Alexa Fluor 647
Settings in all cases: 3'-biotin; 20 mM Tris (pH 7.5), 5 mM MgCl2, 100 mM KCl, 0.1% Tween-20, A/T-rich and random oligonucleotide blockers; temperature not stated; high values mean tight binding
MAPRE1 = MAPRE1 (UniProt Q15691)
MAPRE2 (human) = test system: MAPRE2 (human)
MARVELD2 (human) = test system: MARVELD2 (human)
MASP2 (human) = test system: MASP2 (human)
MAT1A (human) = test system: MAT1A (human)
MAT2B (human) = test system: MAT2B (human)
MB (human) = test system: MB (human)
MCFD2 (human) = test system: MCFD2 (human)
MCM2 (human) = test system: MCM2 (human)
MCM6 (human) = test system: MCM6 (human)

With “GGTGACAGGGGTATGGGGAGGGG [G4-2 biotinylated (Ct1)]” as the sequence, how does the binding signal (MAPRE1) read?
The binding signal was 3.27 z-score.

What about the binding signal (MAPRE2 (human)) of the same sequence?
The binding signal was -0.358 z-score.

What about the binding signal (MARVELD2 (human)) of the same sequence?
Its binding signal is -0.394 z-score.

And the binding signal (MASP2 (human))?
Its binding signal is -0.372 z-score.

And the binding signal (MAT1A (human))?
The binding signal was -0.369 z-score.

What about the binding signal (MAT2B (human)) of the same sequence?
Its binding signal is -0.377 z-score.

And the binding signal (MB (human))?
The binding signal was -0.401 z-score.

And the binding signal (MCFD2 (human))?
The binding signal was -0.374 z-score.

And the binding signal (MCM2 (human))?
The binding signal was -0.393 z-score and -0.38 z-score.

And the binding signal (MCM6 (human))?
Its binding signal is -0.41 z-score.
